Positions count from the first letter of the chain named. Results are given in words; binding and its absence hold for the method and conditions named. Some binding calls cover weakened binding; strength is not graded here.
Experiments:
[1] = molecular target: human TREM2 expressed on cells (human) (UniProt Q9NZC2); assay: FACS, BW cells
[2] = molecular target: human TREM2 expressed on cells (human) (UniProt Q9NZC2); assay: FACS

Protein sequences, listed by entry. Tags and fused reporters are not part of them. Lines headed by an entry give the natural chain unless they say otherwise; changes in a name come on top.
UniProt Q9NZC2: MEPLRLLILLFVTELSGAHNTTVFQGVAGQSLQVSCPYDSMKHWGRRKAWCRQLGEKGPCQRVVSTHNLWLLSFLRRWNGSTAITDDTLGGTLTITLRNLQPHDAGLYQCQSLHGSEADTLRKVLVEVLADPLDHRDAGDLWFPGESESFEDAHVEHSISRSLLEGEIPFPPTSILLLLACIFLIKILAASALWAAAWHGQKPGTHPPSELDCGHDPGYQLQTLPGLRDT

B1: AL2p-47 (antibody, IgG1, V domains shown)
VH: QVQLVQSGAEVKKPGSSVKVSCKASGYAFSSDWMNWVRQAPGQGLEWMGRIYPGEGDTNYARKFHGRVTITADESTSTAYMELSSLRSEDTAVYYCARLLRNKPGESYAMDYWGQGTLVTVSS
VL: DVVMTQTPLSLSVTPGQPASISCRTSQSLVHSNAYTYLHWYLQKPGQSPQLLIYKVSNRVSGVPDRFSGSGSGTDFTLKISRVEAEDVGVYYCSQSTRVPYTFGQGTKLEIK
[1]
  binding: binds

B2: AL2p-61 huIgG1 (antibody, V domains shown)
VH: B1 VH with D32Q, H65Q, K103Q
VL: GVVMTQTPLSLSVTPGQPASISCRSSQSLVHSNQYTYLHWYLQKPGQSPQLLIYKVSNRRSGVPDRFSGSGSGTDFTLKISRVEAEDVGVYYCSQSTRVPYTFGQGTKLEIKR
[1]
  binding: binds

B3: AL2p-37 (antibody, IgG1, V domains shown)
VH: B1 VH with S16A, D32Q, G44R, M48I, E55G, R62G, H65Q, E74T, T76A, K103Q
VL: DVVMTQSPDSLAVSLGERATINCRSSQSLVHSNGYTYLHWYQQKPGQSPKLLIYKVSNRFSGVPDRFSGSGSGTDFTLTISSLQAEDVAVYYCSQSTRVPYTFGGGTKVEIK
[1]
  binding: binds

B4: AL2p-47 huIgG1 (antibody, V domains shown)
VH: B1 VH
VL: B2 VL with G1D, S25T, Q34A, R60V
[1]
  binding: binds

B5: AL2p-h19 (antibody, IgG1, V domains shown)
VH: B1 VH with D32S, E55D, R62Q, H65Q, V68A, E74T, K103Q
VL: B1 VL with V2I, T25S, A34G, V60F
[2]
  binding: binds

B6: AL2p-h21 (antibody, IgG1, V domains shown)
VH: B1 VH with S16A, D32S, E55D, R62Q, H65Q, I70M, A72R, E74T, A79V, K103Q
VL: B1 VL with T25S, A34G, V60F, V88L, Y92F
[2]
  binding: binds

B7: AL2p-h22 (antibody, IgG1, V domains shown)
VH: B1 VH with S16A, D32S, M48I, E55D, R62Q, H65Q, I70M, E74T, A79V, K103Q
VL: B1 VL with T25S, A34G, V60F, V88L, Y92F
[2]
  binding: binds

B8: AL2p-h23 (antibody, IgG1, V domains shown)
VH: QVQLVQSGAEVKKPGASLKISCKASGYAFSSSWMNWVRQAPGQGLEWIGRIYPGDGDTNYAQKFQGRATLTADTSTSTAYMELSSLRSEDTAVYYCARLLRNQPGESYAMDYWGQGALVTVSS
VL: B1 VL with T25S, A34G, V60F, V88L, Y92F
[2]
  binding: binds

B9: AL2p-h24 (antibody, IgG1, V domains shown)
VH: B8 VH with K12V, A61N, Y95F
VL: B1 VL with T25S, A34G, V60F, V88L, Y92F
[2]
  binding: binds

B10: AL2p-h25 (antibody, IgG1, V domains shown)
VH: B8 VH with A61N, Q62G, K63E, Q65R, G66V
VL: B1 VL with T25S, A34G, V60F, V88L, Y92F
[2]
  binding: binds

B11: AL2p-h26 (antibody, IgG1, V domains shown)
VH: B8 VH with L18V, I20V, G44R, A68V, L70I, T76A, A117T
VL: B1 VL with T25S, A34G, V60F, V88L, Y92F
[2]
  binding: binds

B12: AL2p-h27 (antibody, IgG1, V domains shown)
VH: B8 VH with L18V, I20V, A61N, Q62G, K63E, Q65R, G66V, Y95F, A117T
VL: B1 VL with T25S, A34G, V60F, V88L, Y92F
[2]
  binding: binds

B13: AL2p-h30 (antibody, IgG1, V domains shown)
VH: B8 VH with L18V, I20V, I48M, A68V, L70M, A117T
VL: B1 VL with T25S, A34G, V60F, V88L, Y92F
[2]
  binding: binds

B14: AL2p-h32 (antibody, IgG1, V domains shown)
VH: QVQLVQSGAEVKKPGSSVKVSCKASGYAFSSSWMNWVRQAPGQGLEWIGRIYPGDGDTNYNGEFRVRATLTADTSTTTAYMELSSLRSEDTAVYFCARLLRNQPGESYAMDYWGQGTLVTVSS
VL: B1 VL with T25S, A34G, V60F, V88L, Y92F
[2]
  binding: binds

B15: AL2p-h33 (antibody, IgG1, V domains shown)
VH: B14 VH with N61A, G62Q, E63K, R65Q, V66G
VL: B1 VL with T25S, A34G, V60F, V88L, Y92F
[2]
  binding: binds

B16: AL2p-h34 (antibody, IgG1, V domains shown)
VH: B8 VH with A16S, L18V, I20V, L70I, Y95F, A117T
VL: B1 VL with T25S, A34G, V60F, V88L, Y92F
[2]
  binding: binds

B17: AL2p-h35 (antibody, IgG1, V domains shown)
VH: B8 VH with A16S, L18V, I20V, I48M, L70I, A117T
VL: B1 VL with T25S, A34G, V60F, V88L, Y92F
[2]
  binding: binds

B18: AL2p-h59 (antibody, IgG1, V domains shown)
VH: B8 VH with L18V, I20V, G44R, I48M, A68V, L70I, A72R, T76A, A117T
VL: B1 VL with V2I, T7S, S12P, Q17E, T25S, A34G, V60F, Q105G, L109V
[2]
  binding: binds

B19: AL2p-h76 (antibody, IgG1, V domains shown)
VH: B8 VH with L18V, I20V, G44R, L70I, T76A, Y95F, A117T
VL: B3 VL
[2]
  binding: binds

B20: AL2p-h77 (antibody, IgG1, V domains shown)
VH: B8 VH with L18V, I20V, G44R, A68V, L70I, T76A, A117T
VL: B3 VL
[2]
  binding: binds

B21: AL2p-h90 (antibody, IgG1, V domains shown)
VH: B8 VH with L18V, I20V, G44R, A68V, L70I, T76A, A117T
VL: DVQMTQSPSSLSASVGDRVTITCRSSQSLVHSNGYTYLHWYQQKPGKSPKLLIYKVSNRFSGVPSRFSGSGSGTDFTLTISSLQPEDFATYYCSQSTRVPYTFGGGTKVEIK
[2]
  binding: binds

— patent US20190040130A1
